Assays:
Assay type in all cases: cell-based
[1] = target: T1, Sm.5HTR (Schistosoma mansoni, UniProt G4V5G4); experiment: Antagonist washout (inactivating antagonist) GloSensor assay on suspension cells
Description: To test putative irreversible antagonists, assays on suspension cells were performed one day post transfection. […] Compounds were added at 10 μM, and after 30 minute incubation at room temperature cells were centrifuged (300 RCF, 5 minutes) and resuspended in fresh media. This wash step was repeated, and cells were resuspended in HBSS supplemented with 0.1% BSA, 20mM HEPES and GloSensor reagent. Cells were gently rotated to prevent aggregation and settling over the course of the two hour equilibration period, after which time they were transferred to 96 well plates at a density of 8 x 10^4 cells / 100μL per well and assays described for adherent cells.

Amino acid sequences for entries named in this document (tags omitted).
UniProt G4V5G4, entry or part of it: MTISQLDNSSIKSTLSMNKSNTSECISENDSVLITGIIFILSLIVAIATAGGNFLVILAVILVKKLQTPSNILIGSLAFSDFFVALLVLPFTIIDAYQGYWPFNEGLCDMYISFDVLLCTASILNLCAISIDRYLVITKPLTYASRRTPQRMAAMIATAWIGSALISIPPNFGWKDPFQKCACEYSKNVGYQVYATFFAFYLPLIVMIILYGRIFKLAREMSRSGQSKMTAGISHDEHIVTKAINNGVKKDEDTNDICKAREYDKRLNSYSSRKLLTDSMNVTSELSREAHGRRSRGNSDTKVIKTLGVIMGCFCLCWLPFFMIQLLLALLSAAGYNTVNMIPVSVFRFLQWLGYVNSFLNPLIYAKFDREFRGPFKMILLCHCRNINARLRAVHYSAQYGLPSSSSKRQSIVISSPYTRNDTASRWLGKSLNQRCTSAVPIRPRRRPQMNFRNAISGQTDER
UniProt A0A173FEI8, entry or part of it: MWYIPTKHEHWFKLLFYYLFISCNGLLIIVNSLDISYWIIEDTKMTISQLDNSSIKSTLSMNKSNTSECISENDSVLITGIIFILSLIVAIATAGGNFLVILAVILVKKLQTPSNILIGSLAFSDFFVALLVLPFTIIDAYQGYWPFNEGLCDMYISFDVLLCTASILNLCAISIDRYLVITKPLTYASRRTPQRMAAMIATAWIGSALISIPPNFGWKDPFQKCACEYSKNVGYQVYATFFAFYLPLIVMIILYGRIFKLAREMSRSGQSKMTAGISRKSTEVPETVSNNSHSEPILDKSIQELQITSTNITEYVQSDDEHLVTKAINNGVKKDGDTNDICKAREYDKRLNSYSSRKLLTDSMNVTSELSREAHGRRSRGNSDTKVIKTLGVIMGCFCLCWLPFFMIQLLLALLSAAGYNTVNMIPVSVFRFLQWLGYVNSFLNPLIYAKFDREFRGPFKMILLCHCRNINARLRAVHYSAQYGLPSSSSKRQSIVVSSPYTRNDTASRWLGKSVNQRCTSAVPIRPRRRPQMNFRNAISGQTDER

[2] = target: T1, Sm.5HTR
Description: (§1) HEK293 cells (ATCC CRL-1573.3) were cultured in DMEM supplemented with 10% fetal bovine serum (FBS), penicillin (100 units/ml), streptomycin (100 μg/ml), and L-glutamine (290 μg/ml). Cells were transiently transfected (ViaFect, Promega) as per the manufacturer’s protocol at a density of 2x10^6 cells per T-25 cell-culture flask. Cells were transfected with plasmids encoding GloSensor (Promega) and either Sm.5HTR (Smp_126730, GenBank accession number KF444051.1) or Sm.5HTRL (KX150867), bothGPCRs being codon optimized for mammalian expression, or Hs.5HT7a (GenBank accession number NM_000872.4, R&D Systems) subcloned into pCS2(-). Cell culture reagents were from Invitrogen. Epitope tagged constructs were used to verify expression, and untagged constructs used for all luminescence assays.
For assays performed on adherent cells, HEK-293 cells were transferred one day post transfection to 96 well, solid white plates (Corning, cat # 3917) coated with 0.01% poly-L-lysine (Sigma Aldrich) at a density of 5 x 10^4 cells / well in DMEM supplemented with 1% dialyzed FBS (Gibco). […] Plates were allowed to equilibrate at room temperature for two hours prior to performing luminescence assays (GloMax-Multi Detection System plate reader, Promega). […]

[3] = target: Sm.5HTRL (Schistosoma mansoni, UniProt A0A173FEI8); experiment: GloSensor cAMP assay in HEK293 cells expressing Sm.5HTRL; details: antagonists 10μM, 5-HT EC80 dose
Description: as §1
Sequence for Sm.5HTRL was determined by cloning from an Schistosoma mansoni cDNA library (adult male and female NMRI strain, BEI cat #NR-36056) using high fidelity Advantage HD DNA polymerase (Clontech) and primers described in [20]. PCR products were ligated into the pGEM-T Easy vector system (Promega) prior to DNA sequencing. Additional sequence contained in the Sm.5HTRL isoform was verified by 5’/3’ RACE (SMARTer RACE Kit, Clontech) using total RNA extracted from S. mansoni (Trizol reagent, Ambion). Products were cloned into the pRACE vector (In-Fusion HD Cloning Kit, Clontech) prior to DNA sequencing. […]

Compound | inhibition of Sm.5HTR after antagonist wash-out ([1]; 10μM for 30 mins, washout, 5-HT response 1hr later) | potency for Sm.5HTR inhibition after washout ([1]; titration, Fig 6E) | acute inhibition of 5-HT (10μM) response at Sm.5HTR [2] | inhibition of 5-HT evoked cAMP generation through Sm.5HTRL [3] | selectivity for Sm.5HTR over Hs.5HT7R [2]
CCN(CC)C(=O)N[C@H]1C=C2c3cccc4[nH]cc(c34)C[C@H]2N(C)C1 [lisuride] | long-lasting inhibition | most potent | Inhibition of 5-HT response |  | 
Cc1ccccc1C(OCCN(C)C)c1ccccc1 (centres unmarked) [orphenadrine] |  |  |  | inhibited 5-HT evoked cAMP generation | clear selectivity for Sm.5HTR

Reference: publication PMC4871480, “A Miniaturized Screen of a Schistosoma mansoni Serotonergic G Protein-Coupled Receptor Identifies Novel Classes of Parasite-Selective Inhibitors” (PLoS Pathogens, 2016)
